Source: the supplement of paper PMC12823440, “Inhibitors supercharge kinase turnover through native proteolytic circuits” (Nature, 2025)
Counter-ions that a name gives are not always drawn. The list shows a part of the results. The calls rarely recur for the same compound in another form.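 Kinases, fused to nanoluciferase, were expressed in K562 cells; luminescence was measured every 4 h from 2 to 18 h as percent of control (DMSO = 100%, positive control = 0%). A time point is decreased if signal falls significantly (2 sigma). Hits were called by the authors by a rule that is not shown; the count of time points alone does not decide it.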

The chains behind the UniProt entries cited, without tags or fusion partners. Where a name states a change or a piece, a line headed by the entry shows the natural chain unless it says otherwise.
UniProt P29317, whole entry: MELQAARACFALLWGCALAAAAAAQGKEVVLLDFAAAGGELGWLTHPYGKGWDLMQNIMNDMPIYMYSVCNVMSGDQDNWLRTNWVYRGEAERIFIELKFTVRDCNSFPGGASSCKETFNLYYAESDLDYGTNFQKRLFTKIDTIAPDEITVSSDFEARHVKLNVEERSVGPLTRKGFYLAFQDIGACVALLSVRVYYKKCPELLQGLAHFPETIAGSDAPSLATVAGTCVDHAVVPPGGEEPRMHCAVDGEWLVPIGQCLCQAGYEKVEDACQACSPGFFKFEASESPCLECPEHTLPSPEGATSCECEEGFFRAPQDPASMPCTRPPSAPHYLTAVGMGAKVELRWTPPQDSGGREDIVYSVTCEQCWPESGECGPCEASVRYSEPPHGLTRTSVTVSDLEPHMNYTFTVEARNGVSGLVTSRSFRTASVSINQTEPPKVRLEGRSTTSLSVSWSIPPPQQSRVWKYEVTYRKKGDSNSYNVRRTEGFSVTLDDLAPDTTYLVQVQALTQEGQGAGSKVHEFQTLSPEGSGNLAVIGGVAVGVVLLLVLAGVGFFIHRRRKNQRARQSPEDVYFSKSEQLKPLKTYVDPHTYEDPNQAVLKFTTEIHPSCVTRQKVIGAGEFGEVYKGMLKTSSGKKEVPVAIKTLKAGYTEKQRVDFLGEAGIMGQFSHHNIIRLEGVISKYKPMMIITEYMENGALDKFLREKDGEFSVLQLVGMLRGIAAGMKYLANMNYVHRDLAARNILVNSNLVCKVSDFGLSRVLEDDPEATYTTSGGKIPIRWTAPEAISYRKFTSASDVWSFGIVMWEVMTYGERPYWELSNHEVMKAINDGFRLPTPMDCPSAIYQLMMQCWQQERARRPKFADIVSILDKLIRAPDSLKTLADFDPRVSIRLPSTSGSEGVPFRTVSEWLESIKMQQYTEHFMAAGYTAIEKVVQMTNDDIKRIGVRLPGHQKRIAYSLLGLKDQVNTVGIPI
UniProt P21802, whole entry, looked up: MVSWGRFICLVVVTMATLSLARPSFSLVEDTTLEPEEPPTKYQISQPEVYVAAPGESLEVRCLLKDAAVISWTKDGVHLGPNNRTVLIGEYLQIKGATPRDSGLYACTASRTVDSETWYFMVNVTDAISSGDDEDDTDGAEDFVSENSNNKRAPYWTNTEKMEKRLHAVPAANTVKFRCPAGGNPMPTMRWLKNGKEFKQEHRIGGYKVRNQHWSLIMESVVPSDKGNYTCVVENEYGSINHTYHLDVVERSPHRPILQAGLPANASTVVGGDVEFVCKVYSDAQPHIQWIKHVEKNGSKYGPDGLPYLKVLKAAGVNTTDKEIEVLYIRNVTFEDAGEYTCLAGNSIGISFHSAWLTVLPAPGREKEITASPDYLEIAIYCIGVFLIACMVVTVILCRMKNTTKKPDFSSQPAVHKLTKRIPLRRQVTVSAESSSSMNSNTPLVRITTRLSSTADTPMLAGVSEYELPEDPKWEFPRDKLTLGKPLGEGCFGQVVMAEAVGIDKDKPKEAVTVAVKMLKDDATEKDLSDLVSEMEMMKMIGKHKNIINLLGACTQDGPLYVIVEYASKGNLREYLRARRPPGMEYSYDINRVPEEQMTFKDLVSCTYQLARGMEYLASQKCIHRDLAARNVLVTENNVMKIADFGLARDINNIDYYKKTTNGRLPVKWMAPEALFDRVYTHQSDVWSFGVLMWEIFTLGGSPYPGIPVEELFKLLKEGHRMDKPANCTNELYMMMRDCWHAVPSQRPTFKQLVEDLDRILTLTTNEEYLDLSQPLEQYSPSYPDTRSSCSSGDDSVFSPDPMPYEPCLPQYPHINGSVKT
UniProt P22607, whole entry, looked up: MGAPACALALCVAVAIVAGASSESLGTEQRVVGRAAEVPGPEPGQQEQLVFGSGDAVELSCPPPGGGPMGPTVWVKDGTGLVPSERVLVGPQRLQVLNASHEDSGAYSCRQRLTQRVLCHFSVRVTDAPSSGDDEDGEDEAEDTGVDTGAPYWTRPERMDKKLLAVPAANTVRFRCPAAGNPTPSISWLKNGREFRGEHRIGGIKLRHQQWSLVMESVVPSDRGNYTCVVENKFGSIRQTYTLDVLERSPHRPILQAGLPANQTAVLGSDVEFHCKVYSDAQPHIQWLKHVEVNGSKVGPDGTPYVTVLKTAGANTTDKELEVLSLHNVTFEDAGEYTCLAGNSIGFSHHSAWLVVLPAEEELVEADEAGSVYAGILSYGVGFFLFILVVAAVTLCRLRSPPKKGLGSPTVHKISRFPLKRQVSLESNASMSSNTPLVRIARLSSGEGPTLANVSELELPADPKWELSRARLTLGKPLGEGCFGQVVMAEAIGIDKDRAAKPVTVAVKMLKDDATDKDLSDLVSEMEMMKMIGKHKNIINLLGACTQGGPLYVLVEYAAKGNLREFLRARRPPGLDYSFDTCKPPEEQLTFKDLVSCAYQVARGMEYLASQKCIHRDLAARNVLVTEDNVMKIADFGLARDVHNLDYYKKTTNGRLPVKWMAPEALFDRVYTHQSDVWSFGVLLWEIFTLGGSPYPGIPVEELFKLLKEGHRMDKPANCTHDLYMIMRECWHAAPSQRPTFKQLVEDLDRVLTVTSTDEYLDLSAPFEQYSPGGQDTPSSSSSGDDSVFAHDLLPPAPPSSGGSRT
UniProt P36888, whole entry: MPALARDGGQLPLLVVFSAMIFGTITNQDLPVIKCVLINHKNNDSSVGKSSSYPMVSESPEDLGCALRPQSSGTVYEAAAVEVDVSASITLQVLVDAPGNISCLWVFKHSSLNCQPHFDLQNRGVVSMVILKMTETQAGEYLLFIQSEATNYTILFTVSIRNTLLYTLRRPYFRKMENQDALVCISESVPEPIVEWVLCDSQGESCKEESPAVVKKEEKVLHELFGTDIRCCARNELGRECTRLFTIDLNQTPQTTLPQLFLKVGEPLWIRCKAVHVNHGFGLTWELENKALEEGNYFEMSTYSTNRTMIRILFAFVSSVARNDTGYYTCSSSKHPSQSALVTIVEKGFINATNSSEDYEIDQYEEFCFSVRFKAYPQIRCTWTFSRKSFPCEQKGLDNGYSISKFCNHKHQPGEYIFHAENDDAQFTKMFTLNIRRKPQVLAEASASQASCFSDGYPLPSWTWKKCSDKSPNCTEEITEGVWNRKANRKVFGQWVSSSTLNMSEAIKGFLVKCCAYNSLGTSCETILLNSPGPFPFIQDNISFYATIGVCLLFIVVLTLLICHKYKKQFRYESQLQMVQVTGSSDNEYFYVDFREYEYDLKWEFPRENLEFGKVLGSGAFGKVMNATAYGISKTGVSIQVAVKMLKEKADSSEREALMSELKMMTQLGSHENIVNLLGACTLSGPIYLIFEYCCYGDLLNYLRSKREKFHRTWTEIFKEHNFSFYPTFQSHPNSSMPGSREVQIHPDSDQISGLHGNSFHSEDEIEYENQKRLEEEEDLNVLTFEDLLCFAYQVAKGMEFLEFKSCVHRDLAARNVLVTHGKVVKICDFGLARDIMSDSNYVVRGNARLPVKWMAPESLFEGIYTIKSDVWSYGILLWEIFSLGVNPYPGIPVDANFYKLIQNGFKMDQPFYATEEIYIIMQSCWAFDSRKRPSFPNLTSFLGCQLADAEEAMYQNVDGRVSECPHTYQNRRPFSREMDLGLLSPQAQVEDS
UniProt P06241, whole entry, looked up: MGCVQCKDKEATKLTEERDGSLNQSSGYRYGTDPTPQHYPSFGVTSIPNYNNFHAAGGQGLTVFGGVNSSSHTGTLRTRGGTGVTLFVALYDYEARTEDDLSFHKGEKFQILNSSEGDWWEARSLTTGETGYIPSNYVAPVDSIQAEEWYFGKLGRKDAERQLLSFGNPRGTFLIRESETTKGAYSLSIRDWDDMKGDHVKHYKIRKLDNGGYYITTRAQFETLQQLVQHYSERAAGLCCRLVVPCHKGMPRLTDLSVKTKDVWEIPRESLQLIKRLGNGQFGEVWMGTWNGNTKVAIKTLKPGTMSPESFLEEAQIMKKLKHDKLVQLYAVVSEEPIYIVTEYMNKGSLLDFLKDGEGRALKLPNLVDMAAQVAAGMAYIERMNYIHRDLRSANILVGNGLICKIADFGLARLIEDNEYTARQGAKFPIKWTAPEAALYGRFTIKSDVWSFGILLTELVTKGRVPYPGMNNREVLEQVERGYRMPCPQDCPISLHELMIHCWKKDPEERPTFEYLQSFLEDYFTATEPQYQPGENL
UniProt P49840: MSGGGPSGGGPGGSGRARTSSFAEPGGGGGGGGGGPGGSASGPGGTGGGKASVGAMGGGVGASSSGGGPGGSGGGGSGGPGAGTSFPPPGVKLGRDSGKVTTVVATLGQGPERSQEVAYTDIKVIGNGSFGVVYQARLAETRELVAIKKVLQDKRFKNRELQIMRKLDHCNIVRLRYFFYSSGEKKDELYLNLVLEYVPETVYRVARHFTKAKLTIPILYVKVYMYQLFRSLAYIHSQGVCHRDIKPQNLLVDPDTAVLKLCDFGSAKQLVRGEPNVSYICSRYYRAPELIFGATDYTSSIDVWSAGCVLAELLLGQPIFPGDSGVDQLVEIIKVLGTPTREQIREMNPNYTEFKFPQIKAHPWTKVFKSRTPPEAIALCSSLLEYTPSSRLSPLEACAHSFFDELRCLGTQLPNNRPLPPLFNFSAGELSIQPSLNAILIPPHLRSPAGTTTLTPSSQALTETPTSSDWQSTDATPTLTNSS
UniProt P14616: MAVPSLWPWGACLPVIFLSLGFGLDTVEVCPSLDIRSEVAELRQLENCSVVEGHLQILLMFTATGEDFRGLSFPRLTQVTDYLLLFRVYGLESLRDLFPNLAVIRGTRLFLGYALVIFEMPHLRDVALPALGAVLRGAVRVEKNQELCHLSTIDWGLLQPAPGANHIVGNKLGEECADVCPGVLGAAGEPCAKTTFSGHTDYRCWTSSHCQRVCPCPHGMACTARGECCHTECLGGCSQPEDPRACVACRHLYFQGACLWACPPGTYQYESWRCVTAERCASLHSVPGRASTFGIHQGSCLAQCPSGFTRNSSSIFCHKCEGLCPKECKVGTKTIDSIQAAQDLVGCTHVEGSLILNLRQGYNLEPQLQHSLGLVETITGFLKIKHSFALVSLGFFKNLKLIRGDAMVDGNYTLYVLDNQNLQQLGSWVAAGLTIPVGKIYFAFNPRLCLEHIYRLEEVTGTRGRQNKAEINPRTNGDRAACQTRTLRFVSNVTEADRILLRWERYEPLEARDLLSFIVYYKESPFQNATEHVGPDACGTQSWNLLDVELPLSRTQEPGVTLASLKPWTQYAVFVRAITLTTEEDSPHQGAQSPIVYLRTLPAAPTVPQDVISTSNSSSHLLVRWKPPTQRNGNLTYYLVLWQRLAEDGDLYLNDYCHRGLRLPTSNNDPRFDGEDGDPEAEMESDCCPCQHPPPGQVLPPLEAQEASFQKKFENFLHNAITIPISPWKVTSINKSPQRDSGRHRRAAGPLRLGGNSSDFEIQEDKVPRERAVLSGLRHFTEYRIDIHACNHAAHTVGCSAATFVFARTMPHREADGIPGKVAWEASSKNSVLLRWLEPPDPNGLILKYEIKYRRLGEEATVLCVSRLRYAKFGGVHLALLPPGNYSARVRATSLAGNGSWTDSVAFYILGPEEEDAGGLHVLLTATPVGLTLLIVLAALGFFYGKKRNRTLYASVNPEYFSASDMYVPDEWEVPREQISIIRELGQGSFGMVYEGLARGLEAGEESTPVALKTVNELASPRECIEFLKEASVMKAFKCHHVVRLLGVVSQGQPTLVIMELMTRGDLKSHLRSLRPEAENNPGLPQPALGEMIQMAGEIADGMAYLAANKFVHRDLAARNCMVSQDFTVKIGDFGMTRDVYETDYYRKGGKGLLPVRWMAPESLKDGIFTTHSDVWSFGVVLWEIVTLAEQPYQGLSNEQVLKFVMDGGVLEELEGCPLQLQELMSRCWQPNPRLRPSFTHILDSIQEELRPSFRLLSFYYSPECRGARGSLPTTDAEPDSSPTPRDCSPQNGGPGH

Tests used:
Assay in all cases: kinase-Nluc reporter destabilization hit call (1 = scored as downregulated) (binary); higher = compound decreases kinase abundance
Conditions in all cases: K562; 2-18 h
EGFR = EGFR (UniProt P00533)
EGFR_G719S = EGFR_G719S (UniProt P00533)
EGFR_G719S_T790M = EGFR_G719S_T790M (UniProt P00533)
EGFR_L718V = EGFR_L718V (UniProt P00533)
EGFR_L858R = EGFR_L858R (UniProt P00533)
EGFR_L861Q = EGFR_L861Q (UniProt P00533)
EGFR_T790M = EGFR_T790M (UniProt P00533)
EPHA2 = EPHA2 (UniProt P29317)
ERBB3 = ERBB3 (UniProt P21860)
[1] = target: ERBB4_R711C (clone: ERBB4_mut) (UniProt Q15303)
ERN1 = ERN1 (UniProt O75460)
FGFR1 = FGFR1 (UniProt P11362)
FGFR2 = FGFR2 (UniProt P21802)
FGFR3 = FGFR3 (UniProt P22607)
FGR = FGR (UniProt P09769)
FLT3 = FLT3 (UniProt P36888)
FYN = FYN (UniProt P06241)
GSK3A = GSK3A (UniProt P49840)
HER2 = HER2 (UniProt P04626)
INSRR = INSRR (UniProt P14616)

Measured: kinase-Nluc reporter destabilization hit call

C[C@@H]1CN(Cc2ccc(F)cc2)[C@@H](C)CN1C(=O)c1cc2c(C(=O)C(=O)N(C)C)cn(C)c2cc1Cl [Talmapimod] (10 µM)
inactive: EGFR 0 | EGFR_G719S 0 | EGFR_G719S_T790M 0 | EGFR_L718V 0 | EGFR_L858R 0 | EGFR_L861Q 0 | EGFR_T790M 0 | EPHA2 = 0 | ERBB3 = 0 | [1] 0 | ERN1 = 0 | FGFR1 = 0 | FGFR2 = 0 | FGFR3 = 0 | FGR 0 | FLT3 = 0 | FYN 0 | GSK3A 0 | HER2 = 0 | INSRR 0

CC/C(=C(\c1ccccc1)c1ccc(OCCNC)cc1)c1ccccc1 [N-Desmethyltamoxifen (hydrochloride)] (2.5 µM)
inactive: EGFR 0 | EGFR_G719S 0 | EGFR_G719S_T790M 0 | EGFR_L718V 0 | EGFR_L858R 0 | EGFR_L861Q 0 | EGFR_T790M 0 | EPHA2 = 0 | ERBB3 = 0 | [1] 0 | ERN1 = 0 | FGFR1 = 0 | FGFR2 = 0 | FGFR3 = 0 | FGR 0 | FLT3 = 0 | FYN 0 | GSK3A 0 | HER2 = 0 | INSRR 0

Fc1ccc(-c2nc3n(c2-c2ccncc2)CCS3)cc1 (10 µM)
inactive: EGFR 0 | EGFR_G719S 0 | EGFR_G719S_T790M 0 | EGFR_L718V 0 | EGFR_L858R 0 | EGFR_L861Q 0 | EGFR_T790M 0 | EPHA2 = 0 | ERBB3 = 0 | [1] 0 | ERN1 = 0 | FGFR1 = 0 | FGFR2 = 0 | FGFR3 = 0 | FGR 0 | FLT3 = 0 | FYN 0 | GSK3A 0 | HER2 = 0 | INSRR 0

Cc1nc2c(NCc3cccc(S(C)(=O)=O)c3)nccn2c1-c1ccc(O)c(F)c1 (10 µM)
inactive: EGFR 0 | EGFR_G719S 0 | EGFR_G719S_T790M 0 | EGFR_L718V 0 | EGFR_L858R 0 | EGFR_L861Q 0 | EGFR_T790M 0 | EPHA2 = 0 | ERBB3 = 0 | [1] 0 | ERN1 = 0 | FGFR1 = 0 | FGFR2 = 0 | FGFR3 = 0 | FGR 0 | FLT3 = 0 | FYN 0 | GSK3A 0 | HER2 = 0 | INSRR 0

NC(=O)c1ccccc1Nc1ccnc(Nc2cccc(O)c2)n1 (10 µM)
inactive: EGFR 0 | EGFR_G719S 0 | EGFR_G719S_T790M 0 | EGFR_L718V 0 | EGFR_L858R 0 | EGFR_L861Q 0 | EGFR_T790M 0 | EPHA2 = 0 | ERBB3 = 0 | [1] 0 | ERN1 = 0 | FGFR1 = 0 | FGFR2 = 0 | FGFR3 = 0 | FGR 0 | FLT3 = 0 | FYN 0 | GSK3A 0 | HER2 = 0 | INSRR 0

COc1ccc2cc1Oc1ccc(cc1)C[C@H]1c3cc(c(OC)cc3CCN1C)Oc1c(O)c(OC)cc3c1[C@H](C2)N(C)CC3 [Fangchinoline] (2.5 µM)
inactive: EGFR 0 | EGFR_G719S 0 | EGFR_G719S_T790M 0 | EGFR_L718V 0 | EGFR_L858R 0 | EGFR_L861Q 0 | EGFR_T790M 0 | EPHA2 = 0 | ERBB3 = 0 | [1] 0 | ERN1 = 0 | FGFR1 = 0 | FGFR2 = 0 | FGFR3 = 0 | FGR 0 | FLT3 = 0 | FYN 0 | GSK3A 0 | HER2 = 0 | INSRR 0

O=C(CCl)c1c[nH]c2ccccc12 (2.5 µM)
inactive: EGFR 0 | EGFR_G719S 0 | EGFR_G719S_T790M 0 | EGFR_L718V 0 | EGFR_L858R 0 | EGFR_L861Q 0 | EGFR_T790M 0 | EPHA2 = 0 | ERBB3 = 0 | [1] 0 | ERN1 = 0 | FGFR1 = 0 | FGFR2 = 0 | FGFR3 = 0 | FGR 0 | FLT3 = 0 | FYN 0 | GSK3A 0 | HER2 = 0 | INSRR 0

O=C(Nc1ccnc(NC(=O)C2CC2)c1)c1c(Cl)cccc1Cl (10 µM)
inactive: EGFR 0 | EGFR_G719S 0 | EGFR_G719S_T790M 0 | EGFR_L718V 0 | EGFR_L858R 0 | EGFR_L861Q 0 | EGFR_T790M 0 | EPHA2 = 0 | ERBB3 = 0 | [1] 0 | ERN1 = 0 | FGFR1 = 0 | FGFR2 = 0 | FGFR3 = 0 | FGR 0 | FLT3 = 0 | FYN 0 | GSK3A 0 | HER2 = 0 | INSRR 0

COc1cc(N2CCC(O)CC2)ccc1Nc1nc(Nc2ccccc2S(=O)(=O)C(C)C)c2[nH]cnc2n1 (10 µM)
inactive: EGFR 0 | EGFR_G719S 0 | EGFR_G719S_T790M 0 | EGFR_L718V 0 | EGFR_L858R 0 | EGFR_L861Q 0 | EGFR_T790M 0 | EPHA2 = 0 | ERBB3 = 0 | [1] 0 | ERN1 = 0 | FGFR1 = 0 | FGFR2 = 0 | FGFR3 = 0 | FGR 0 | FLT3 = 0 | FYN 0 | GSK3A 0 | HER2 = 0 | INSRR 0

CCn1c(N)c(C(=O)NC)c(=O)c2ccc(C#CC(C)(O)COC)nc21 (stereo not given) (10 µM)
inactive: EGFR 0 | EGFR_G719S 0 | EGFR_G719S_T790M 0 | EGFR_L718V 0 | EGFR_L858R 0 | EGFR_L861Q 0 | EGFR_T790M 0 | EPHA2 = 0 | ERBB3 = 0 | [1] 0 | ERN1 = 0 | FGFR1 = 0 | FGFR2 = 0 | FGFR3 = 0 | FGR 0 | FLT3 = 0 | FYN 0 | GSK3A 0 | HER2 = 0 | INSRR 0

O=C1Cc2ccccc2N1 [Oxindole] (10 µM)
inactive: EGFR 0 | EGFR_G719S 0 | EGFR_G719S_T790M 0 | EGFR_L718V 0 | EGFR_L858R 0 | EGFR_L861Q 0 | EGFR_T790M 0 | EPHA2 = 0 | ERBB3 = 0 | [1] 0 | ERN1 = 0 | FGFR1 = 0 | FGFR2 = 0 | FGFR3 = 0 | FGR 0 | FLT3 = 0 | FYN 0 | GSK3A 0 | HER2 = 0 | INSRR 0

As a working copy, 2 of the compounds above:
COc1ccc2cc1Oc1ccc(cc1)C[C@H]1c3cc(c(OC)cc3CCN1C)Oc1c(O)c(OC)cc3c1[C@H](C2)N(C)CC3 [Fangchinoline] (2.5 µM)
inactive: EGFR 0 | EGFR_G719S 0 | EGFR_G719S_T790M 0 | EGFR_L718V 0 | EGFR_L858R 0 | EGFR_L861Q 0 | EGFR_T790M 0 | EPHA2 = 0 | ERBB3 = 0 | [1] 0 | ERN1 = 0 | FGFR1 = 0 | FGFR2 = 0 | FGFR3 = 0 | FGR 0 | FLT3 = 0 | FYN 0 | GSK3A 0 | HER2 = 0 | INSRR 0

O=C(CCl)c1c[nH]c2ccccc12 (2.5 µM)
inactive: EGFR 0 | EGFR_G719S 0 | EGFR_G719S_T790M 0 | EGFR_L718V 0 | EGFR_L858R 0 | EGFR_L861Q 0 | EGFR_T790M 0 | EPHA2 = 0 | ERBB3 = 0 | [1] 0 | ERN1 = 0 | FGFR1 = 0 | FGFR2 = 0 | FGFR3 = 0 | FGR 0 | FLT3 = 0 | FYN 0 | GSK3A 0 | HER2 = 0 | INSRR 0

More compounds follow.

Cc1nn(CC(F)(F)F)cc1Nc1ncc(Br)c(NCc2ccc(S(N)(=O)=O)cc2)n1 (10 µM)
inactive: EGFR 0 | EGFR_G719S 0 | EGFR_G719S_T790M 0 | EGFR_L718V 0 | EGFR_L858R 0 | EGFR_L861Q 0 | EGFR_T790M 0 | EPHA2 = 0 | ERBB3 = 0 | [1] 0 | ERN1 = 0 | FGFR1 = 0 | FGFR2 = 0 | FGFR3 = 0 | FGR 0 | FLT3 = 0 | FYN 0 | GSK3A 0 | HER2 = 0 | INSRR 0

O=C(O)/C=C(\CCc1ccc(Cl)cc1)c1ccccc1 (10 µM)
inactive: EGFR 0 | EGFR_G719S 0 | EGFR_G719S_T790M 0 | EGFR_L718V 0 | EGFR_L858R 0 | EGFR_L861Q 0 | EGFR_T790M 0 | EPHA2 = 0 | ERBB3 = 0 | [1] 0 | ERN1 = 0 | FGFR1 = 0 | FGFR2 = 0 | FGFR3 = 0 | FGR 0 | FLT3 = 0 | FYN 0 | GSK3A 0 | HER2 = 0 | INSRR 0

COC(=O)N1CCN(C2CCC(Nc3nc(Nc4cnn(C)c4)nc4ccc(CC#N)nc34)CC2)CC1 (stereo not given) (10 µM)
inactive: EGFR 0 | EGFR_G719S 0 | EGFR_G719S_T790M 0 | EGFR_L718V 0 | EGFR_L858R 0 | EGFR_L861Q 0 | EGFR_T790M 0 | EPHA2 = 0 | ERBB3 = 0 | [1] 0 | ERN1 = 0 | FGFR1 = 0 | FGFR2 = 0 | FGFR3 = 0 | FGR 0 | FLT3 = 0 | FYN 0 | GSK3A 0 | HER2 = 0 | INSRR 0

Cc1cnc(Nc2ccc(F)cc2Cl)nc1-c1c[nH]c(C(=O)N[C@H](CO)c2cccc(Cl)c2)c1 (10 µM)
inactive: EGFR 0 | EGFR_G719S 0 | EGFR_G719S_T790M 0 | EGFR_L718V 0 | EGFR_L858R 0 | EGFR_L861Q 0 | EGFR_T790M 0 | EPHA2 = 0 | ERBB3 = 0 | [1] 0 | ERN1 = 0 | FGFR1 = 0 | FGFR2 = 0 | FGFR3 = 0 | FGR 0 | FLT3 = 0 | FYN 0 | GSK3A 0 | HER2 = 0 | INSRR 0

Cc1ccc2c(NS(=O)(=O)c3ccccc3Cl)cccc2c1Oc1ncccc1-c1ccnc(N[C@H]2CCCNC2)n1 (2.5 µM)
inactive: EGFR 0 | EGFR_G719S 0 | EGFR_G719S_T790M 0 | EGFR_L718V 0 | EGFR_L858R 0 | EGFR_L861Q 0 | EGFR_T790M 0 | EPHA2 = 0 | ERBB3 = 0 | [1] 0 | ERN1 = 0 | FGFR1 = 0 | FGFR2 = 0 | FGFR3 = 0 | FGR 0 | FLT3 = 0 | FYN 0 | GSK3A 0 | HER2 = 0 | INSRR 0

COc1ccc(-c2cc(=O)c3c(O)cc(O)cc3o2)cc1-c1c(O)cc(O)c2c(=O)cc(-c3ccc(O)cc3)oc12 [Bilobetin] (2.5 µM)
inactive: EGFR 0 | EGFR_G719S 0 | EGFR_G719S_T790M 0 | EGFR_L718V 0 | EGFR_L858R 0 | EGFR_L861Q 0 | EGFR_T790M 0 | EPHA2 = 0 | ERBB3 = 0 | [1] 0 | ERN1 = 0 | FGFR1 = 0 | FGFR2 = 0 | FGFR3 = 0 | FGR 0 | FLT3 = 0 | FYN 0 | GSK3A 0 | HER2 = 0 | INSRR 0
